Some of the results follow. Residues, ends and D or L forms follow the SMILES beside them. *: point of attachment. Cbz = O=C(OCc1ccccc1)*
Columns and labels:
Assay in all cases: log2 fold change, soluble protein after heating vs DMSO (PISA); higher = thermal stabilisation; K562 cells, 10 uM, 30 min; active = over 0.2 and 3.5 SD of the protein, either way, in both replicates (recomputed)
erlotinib = compound: C#Cc1cccc(Nc2ncnc3cc(OCCOC)c(OCCOC)cc23)c1 [erlotinib]
Procedure, shortened: (§1)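 Thermal stability values are relative to control samples and come from duplicates. They are expressed as log2 fold changes. For measurement, K562 cells (2×10^6 cells/mL) received 10 μM compound for 30 min, and aliquots were heated for 3 min over 48°C-58°C, pooled, and extracted at 4°C in PBS with 0.5% NP-40. Soluble protein, the supernatant after 21,000xg for 90 min, was quantified by TMTpro 16plex LC-MS/MS with equalised channel sums.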

Chains of the proteins cited; added tags and fusions are not shown. Lines headed by an entry give the natural chain unless they say otherwise; changes in a name come on top.
UniProt O14744, whole entry, looked up: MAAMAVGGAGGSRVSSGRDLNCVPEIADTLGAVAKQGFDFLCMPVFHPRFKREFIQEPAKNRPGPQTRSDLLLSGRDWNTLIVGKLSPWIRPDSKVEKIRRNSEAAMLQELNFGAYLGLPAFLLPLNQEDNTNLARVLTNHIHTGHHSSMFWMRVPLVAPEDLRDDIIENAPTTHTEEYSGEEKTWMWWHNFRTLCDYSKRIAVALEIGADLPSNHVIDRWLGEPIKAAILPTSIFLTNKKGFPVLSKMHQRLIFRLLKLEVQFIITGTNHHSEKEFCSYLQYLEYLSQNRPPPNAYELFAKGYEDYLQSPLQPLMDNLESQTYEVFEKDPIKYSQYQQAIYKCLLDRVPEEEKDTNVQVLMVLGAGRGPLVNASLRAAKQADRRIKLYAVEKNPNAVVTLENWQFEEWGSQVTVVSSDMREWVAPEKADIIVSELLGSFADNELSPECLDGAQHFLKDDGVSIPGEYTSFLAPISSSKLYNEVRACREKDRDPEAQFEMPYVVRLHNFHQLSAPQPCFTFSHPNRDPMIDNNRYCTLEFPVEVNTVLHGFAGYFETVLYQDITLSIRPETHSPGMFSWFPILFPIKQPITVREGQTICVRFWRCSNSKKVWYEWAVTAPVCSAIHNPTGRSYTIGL
UniProt P63098, whole entry, looked up: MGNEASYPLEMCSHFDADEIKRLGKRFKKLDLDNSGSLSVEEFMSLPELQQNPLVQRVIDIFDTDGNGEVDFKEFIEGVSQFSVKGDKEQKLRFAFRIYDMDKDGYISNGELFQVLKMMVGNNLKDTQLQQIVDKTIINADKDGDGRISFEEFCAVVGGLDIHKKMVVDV
UniProt P78395, whole entry, looked up: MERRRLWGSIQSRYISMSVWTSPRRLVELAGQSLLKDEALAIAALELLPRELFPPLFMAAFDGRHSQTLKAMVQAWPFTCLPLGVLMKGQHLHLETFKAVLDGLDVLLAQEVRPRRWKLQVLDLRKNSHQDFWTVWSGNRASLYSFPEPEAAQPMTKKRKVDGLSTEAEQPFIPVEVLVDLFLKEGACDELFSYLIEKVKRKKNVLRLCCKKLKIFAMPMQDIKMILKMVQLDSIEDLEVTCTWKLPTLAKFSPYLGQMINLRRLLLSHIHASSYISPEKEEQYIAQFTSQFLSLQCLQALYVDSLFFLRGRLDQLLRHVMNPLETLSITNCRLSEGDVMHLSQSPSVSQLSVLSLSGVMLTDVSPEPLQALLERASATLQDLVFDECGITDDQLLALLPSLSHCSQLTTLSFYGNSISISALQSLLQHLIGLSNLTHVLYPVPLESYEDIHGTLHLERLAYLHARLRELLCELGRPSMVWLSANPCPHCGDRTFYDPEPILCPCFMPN
UniProt Q8WY54: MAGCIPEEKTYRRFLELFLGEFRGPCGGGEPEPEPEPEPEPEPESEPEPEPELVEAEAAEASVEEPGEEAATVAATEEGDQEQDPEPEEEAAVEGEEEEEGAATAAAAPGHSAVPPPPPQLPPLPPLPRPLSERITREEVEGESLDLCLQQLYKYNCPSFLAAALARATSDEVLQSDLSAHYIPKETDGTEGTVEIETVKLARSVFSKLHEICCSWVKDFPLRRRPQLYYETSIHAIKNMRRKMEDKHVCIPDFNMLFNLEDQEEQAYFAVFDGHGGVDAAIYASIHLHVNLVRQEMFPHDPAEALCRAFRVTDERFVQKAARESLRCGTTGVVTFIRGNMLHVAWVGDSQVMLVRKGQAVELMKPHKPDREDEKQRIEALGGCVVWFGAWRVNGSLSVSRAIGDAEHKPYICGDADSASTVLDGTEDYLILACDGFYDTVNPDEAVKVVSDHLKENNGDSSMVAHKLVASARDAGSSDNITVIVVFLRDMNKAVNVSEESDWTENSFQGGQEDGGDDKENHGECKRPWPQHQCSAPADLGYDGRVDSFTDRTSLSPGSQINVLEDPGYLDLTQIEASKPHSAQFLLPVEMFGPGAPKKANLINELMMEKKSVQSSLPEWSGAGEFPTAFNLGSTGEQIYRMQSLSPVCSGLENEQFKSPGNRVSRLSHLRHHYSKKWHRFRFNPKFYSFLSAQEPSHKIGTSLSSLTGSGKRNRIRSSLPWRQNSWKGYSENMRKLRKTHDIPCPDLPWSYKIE
UniProt Q6P2P2: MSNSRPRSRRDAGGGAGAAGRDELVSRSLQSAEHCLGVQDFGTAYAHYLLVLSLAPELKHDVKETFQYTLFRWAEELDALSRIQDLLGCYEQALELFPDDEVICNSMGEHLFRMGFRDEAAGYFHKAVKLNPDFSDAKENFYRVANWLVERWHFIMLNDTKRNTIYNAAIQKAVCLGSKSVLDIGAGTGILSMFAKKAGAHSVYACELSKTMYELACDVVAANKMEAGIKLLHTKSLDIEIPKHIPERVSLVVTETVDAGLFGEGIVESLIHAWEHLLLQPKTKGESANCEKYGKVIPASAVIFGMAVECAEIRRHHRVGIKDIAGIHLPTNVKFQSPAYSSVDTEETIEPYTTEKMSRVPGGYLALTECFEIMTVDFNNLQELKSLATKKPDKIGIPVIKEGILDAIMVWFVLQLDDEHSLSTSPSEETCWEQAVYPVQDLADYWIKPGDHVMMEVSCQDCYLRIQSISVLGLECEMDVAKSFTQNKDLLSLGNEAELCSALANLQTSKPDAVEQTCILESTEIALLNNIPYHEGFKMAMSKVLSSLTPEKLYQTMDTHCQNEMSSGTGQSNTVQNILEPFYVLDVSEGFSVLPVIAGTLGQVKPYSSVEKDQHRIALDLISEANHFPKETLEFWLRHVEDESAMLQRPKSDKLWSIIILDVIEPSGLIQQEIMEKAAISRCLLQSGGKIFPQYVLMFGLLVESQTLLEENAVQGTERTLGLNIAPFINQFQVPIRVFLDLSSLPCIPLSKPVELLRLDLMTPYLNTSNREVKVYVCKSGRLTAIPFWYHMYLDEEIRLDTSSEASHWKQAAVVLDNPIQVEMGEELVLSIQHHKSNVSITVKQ
UniProt Q9Y520: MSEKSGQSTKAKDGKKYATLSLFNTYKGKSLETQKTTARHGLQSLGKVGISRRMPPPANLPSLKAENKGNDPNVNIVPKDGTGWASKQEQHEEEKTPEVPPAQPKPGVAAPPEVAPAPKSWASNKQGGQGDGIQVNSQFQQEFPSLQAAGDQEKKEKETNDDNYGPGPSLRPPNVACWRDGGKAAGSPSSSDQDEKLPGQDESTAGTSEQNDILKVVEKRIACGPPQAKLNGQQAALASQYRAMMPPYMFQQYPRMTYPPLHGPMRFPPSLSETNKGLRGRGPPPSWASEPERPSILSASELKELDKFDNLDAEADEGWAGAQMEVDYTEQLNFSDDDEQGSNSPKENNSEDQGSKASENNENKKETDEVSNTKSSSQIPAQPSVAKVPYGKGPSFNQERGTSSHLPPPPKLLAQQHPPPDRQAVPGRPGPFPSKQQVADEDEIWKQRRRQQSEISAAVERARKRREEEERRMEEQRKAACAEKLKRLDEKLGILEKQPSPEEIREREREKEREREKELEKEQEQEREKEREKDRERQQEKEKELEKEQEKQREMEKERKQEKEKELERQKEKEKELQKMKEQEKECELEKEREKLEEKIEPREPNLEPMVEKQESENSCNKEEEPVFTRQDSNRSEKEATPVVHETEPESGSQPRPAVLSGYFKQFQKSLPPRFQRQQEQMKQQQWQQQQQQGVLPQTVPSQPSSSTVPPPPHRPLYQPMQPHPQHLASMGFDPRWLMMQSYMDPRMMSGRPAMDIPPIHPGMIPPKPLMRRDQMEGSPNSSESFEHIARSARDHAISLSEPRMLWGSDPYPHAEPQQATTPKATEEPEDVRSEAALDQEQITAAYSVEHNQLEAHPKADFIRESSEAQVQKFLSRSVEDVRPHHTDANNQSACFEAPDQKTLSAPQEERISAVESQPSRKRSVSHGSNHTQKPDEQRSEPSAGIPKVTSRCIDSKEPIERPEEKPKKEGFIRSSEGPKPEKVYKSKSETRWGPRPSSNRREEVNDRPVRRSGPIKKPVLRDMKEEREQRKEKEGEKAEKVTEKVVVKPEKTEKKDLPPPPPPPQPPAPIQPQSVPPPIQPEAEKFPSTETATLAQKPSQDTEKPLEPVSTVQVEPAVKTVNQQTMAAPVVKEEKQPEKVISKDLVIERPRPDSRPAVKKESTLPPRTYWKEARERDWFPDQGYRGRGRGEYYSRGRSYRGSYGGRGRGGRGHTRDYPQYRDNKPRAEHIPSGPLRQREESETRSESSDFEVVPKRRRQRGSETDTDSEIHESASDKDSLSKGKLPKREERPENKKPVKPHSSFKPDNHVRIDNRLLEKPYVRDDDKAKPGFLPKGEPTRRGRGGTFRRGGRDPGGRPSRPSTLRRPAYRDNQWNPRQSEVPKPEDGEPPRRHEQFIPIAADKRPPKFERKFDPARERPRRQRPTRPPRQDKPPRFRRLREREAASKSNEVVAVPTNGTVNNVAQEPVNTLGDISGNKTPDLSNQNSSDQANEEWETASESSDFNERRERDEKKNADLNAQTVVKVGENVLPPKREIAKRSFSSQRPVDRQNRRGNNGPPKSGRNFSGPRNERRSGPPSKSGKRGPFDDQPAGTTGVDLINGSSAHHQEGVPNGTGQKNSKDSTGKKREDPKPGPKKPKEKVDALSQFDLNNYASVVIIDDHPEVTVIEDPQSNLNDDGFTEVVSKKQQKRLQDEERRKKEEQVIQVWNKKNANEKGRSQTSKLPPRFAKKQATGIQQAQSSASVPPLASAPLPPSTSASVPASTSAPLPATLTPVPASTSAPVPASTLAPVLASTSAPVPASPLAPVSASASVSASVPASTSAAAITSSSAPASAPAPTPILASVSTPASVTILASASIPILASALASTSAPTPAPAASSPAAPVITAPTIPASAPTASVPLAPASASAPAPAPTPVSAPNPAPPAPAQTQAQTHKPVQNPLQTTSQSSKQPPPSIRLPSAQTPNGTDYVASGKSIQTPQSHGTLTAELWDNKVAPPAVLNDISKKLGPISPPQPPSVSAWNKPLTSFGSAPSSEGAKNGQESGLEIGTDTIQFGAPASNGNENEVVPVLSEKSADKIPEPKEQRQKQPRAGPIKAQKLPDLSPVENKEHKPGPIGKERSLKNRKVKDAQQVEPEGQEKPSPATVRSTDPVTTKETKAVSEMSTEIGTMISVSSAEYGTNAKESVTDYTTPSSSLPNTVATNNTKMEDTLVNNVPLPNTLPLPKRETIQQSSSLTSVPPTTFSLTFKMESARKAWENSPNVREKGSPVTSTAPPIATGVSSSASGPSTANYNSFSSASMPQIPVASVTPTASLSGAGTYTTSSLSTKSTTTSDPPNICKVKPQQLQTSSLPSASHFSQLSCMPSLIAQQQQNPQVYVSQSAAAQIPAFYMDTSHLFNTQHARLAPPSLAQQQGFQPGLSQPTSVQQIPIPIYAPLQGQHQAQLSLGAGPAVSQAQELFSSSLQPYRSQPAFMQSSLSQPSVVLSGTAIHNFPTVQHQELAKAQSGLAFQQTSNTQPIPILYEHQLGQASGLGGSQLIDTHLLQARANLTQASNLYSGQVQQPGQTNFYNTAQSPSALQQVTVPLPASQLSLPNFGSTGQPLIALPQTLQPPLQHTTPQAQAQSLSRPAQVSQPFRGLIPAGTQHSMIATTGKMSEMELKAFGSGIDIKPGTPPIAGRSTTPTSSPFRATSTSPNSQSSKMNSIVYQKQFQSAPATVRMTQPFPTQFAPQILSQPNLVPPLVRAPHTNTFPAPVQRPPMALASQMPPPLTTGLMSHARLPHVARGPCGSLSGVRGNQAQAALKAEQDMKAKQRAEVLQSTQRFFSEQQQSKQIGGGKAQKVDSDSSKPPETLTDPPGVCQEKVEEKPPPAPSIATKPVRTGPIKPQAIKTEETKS
UniProt Q06830: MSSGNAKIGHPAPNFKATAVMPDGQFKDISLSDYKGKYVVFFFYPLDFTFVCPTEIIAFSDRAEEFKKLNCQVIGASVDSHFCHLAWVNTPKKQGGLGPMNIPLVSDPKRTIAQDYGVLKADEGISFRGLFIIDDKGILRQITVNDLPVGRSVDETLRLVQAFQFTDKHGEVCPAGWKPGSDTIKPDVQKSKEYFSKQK
UniProt Q96M27: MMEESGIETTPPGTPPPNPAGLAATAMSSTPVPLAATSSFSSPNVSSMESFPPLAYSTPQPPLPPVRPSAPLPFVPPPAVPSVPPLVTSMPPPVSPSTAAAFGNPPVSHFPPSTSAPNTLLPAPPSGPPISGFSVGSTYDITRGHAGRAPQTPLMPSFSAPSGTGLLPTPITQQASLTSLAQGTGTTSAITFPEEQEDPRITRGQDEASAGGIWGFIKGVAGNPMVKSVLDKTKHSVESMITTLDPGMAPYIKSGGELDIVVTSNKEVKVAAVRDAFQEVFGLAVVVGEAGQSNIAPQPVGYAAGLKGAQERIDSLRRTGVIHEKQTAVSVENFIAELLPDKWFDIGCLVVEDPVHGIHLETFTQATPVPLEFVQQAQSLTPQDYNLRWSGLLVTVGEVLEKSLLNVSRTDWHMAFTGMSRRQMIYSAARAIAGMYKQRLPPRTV

[1] = compound: C/C(=N\NC(=O)C1=CC(=CC=C1)S(=O)(=O)N2CCOCC2)/C3=C(C=CC(=C3)Cl)O
Procedure, shortened: as §1

[2] = compound: C1=CC(=C(C=C1Cl)C2=NC3=NC=CN=C3C(=N2)NC4=CC=NC=C4)F
Procedure, shortened: as §1

[3] = compound: C1=CC(=CC=C1C2=NC3=C(N2)C=C(C=C3)C(=O)N)OC4=CC=C(C=C4)Cl
Procedure, shortened: as §1

[4] = compound: C1=CC2=C(C=CC(=C2)/C=C\3/C(=O)NC(=NCC4=CC=CS4)S3)N=C1
Procedure, shortened: as §1

[5] = compound: C1=CC2=NC=CN=C2C=C1/C=C/3\C(=O)NC(=O)S3
Procedure, shortened: as §1

[6] = compound: C1=CC=C(C=C1)C2=NC(=C(N2)C3=CC=NC=C3)C4=CC(=C(C=C4)Cl)O
Procedure, shortened: as §1

[7] = compound: C1=CC=C2C(=C1)C3=NNC4=CC=CC(=C43)C2=O
Procedure, shortened: as §1

[8] = compound: C1CCN(C1)C(=O)NC2=CC=CC(=C2)NC3=NC=C(C(=N3)NCCC4=CN=CN4)Br
Procedure, shortened: as §1

[9] = compound: C1CN(CCC1(CC2=CC=C(C=C2)Cl)N)C3=NC=NC4=C3C=CN4
Procedure, shortened: as §1

IRAK-1-4 Inhibitor I = compound: C1COCCN1CCN2C3=CC=CC=C3N=C2NC(=O)C4=CC(=CC=C4)[N+](=O)[O-] [IRAK-1-4 Inhibitor I]
Procedure, shortened: as §1

ibrutinib = compound: C=CC(=O)N1CCC[C@@H](n2nc(-c3ccc(Oc4ccccc4)cc3)c3c(N)ncnc32)C1 [ibrutinib]
Procedure, shortened: as §1

[10] = compound: CC(=O)c1cnc2ccc(-c3cc(Cl)c(O)c(Cl)c3)nc2c1N[C@H]1CC[C@H](CN(C)C)CC1
Procedure, shortened: as §1

ralimetinib = compound: CC(C)(C)Cn1c(N)nc2ccc(-c3[nH]c(C(C)(C)C)nc3-c3ccc(F)cc3)nc21 [ralimetinib]
Procedure, shortened: as §1

[11] = compound: CC(C)(O)CC(=O)NCCn1ccc2ncnc(Nc3ccc(Oc4cccc(C(F)(F)F)c4)c(Cl)c3)c21
Procedure, shortened: as §1

[12] = compound: CC(C)C1=C2N=C(C=C(N2N=C1)NCC3=CC=CC=C3)NCCCCCCN
Procedure, shortened: as §1

[13] = compound: CC(C)C[C@@H](C=O)NC(=O)[C@H](CC(C)C)NC(=O)[C@H](CC(C)C)NC(=O)OCc1ccccc1
Procedure, shortened: as §1

pinometostat = compound: CC(C)N(C[C@H]1O[C@@H](n2cnc3c(N)ncnc32)[C@H](O)[C@@H]1O)[C@H]1C[C@@H](CCc2nc3cc(C(C)(C)C)ccc3[nH]2)C1 [pinometostat]
Procedure, shortened: as §1

[14] = compound: CC1=C(C(CC(=O)N1)C2=CC=C(C=C2)C(F)(F)F)C(=O)NC3=C(C=C4C(=C3)C=NN4)F
Procedure, shortened: as §1

[15] = compound: CC1=C(C2=C(C=C1)C(=O)C3=CC=CC=C3N2CCCN)C
Procedure, shortened: as §1

Measured: log2 fold change

PRMT5 (UniProt O14744)
inactive: erlotinib 0 | [1] 0.001 | [2] 0.019 | [3] -0.011 | [4] 0.02 | [5] -0.018 | [6] 0.008 | [7] 0.019 | [8] 0.019 | [9] 0.011 | IRAK-1-4 Inhibitor I 0.009 | ibrutinib 0.007 | [10] -0.075 | ralimetinib -0.06 | [11] -0.035 | [12] 0.003 | [13] -0.051 | pinometostat -0.012 | [14] -0.003 | [15] 0.064

PPP3R1 (UniProt P63098)
inactive: erlotinib -0.02 | [1] 0.035 | [2] 0.02 | [3] -0.039 | [4] -0.017 | [5] 0.071 | [6] -0.001 | [7] -0.015 | [8] 0.038 | [9] -0.037 | IRAK-1-4 Inhibitor I 0.021 | ibrutinib 0.031 | [10] 0.03 | ralimetinib 0.034 | [11] -0.1 | [12] -0.12 | [13] 0.075 | pinometostat -0.044 | [14] 0.015 | [15] -0.14

PPP6R2 isoform 5 (UniProt O75170)
inactive: erlotinib 0.017 | [1] -0.006 | [2] 0.038 | [3] -0.037 | [4] -0.017 | [5] 0.048 | [6] 0.02 | [7] 0.016 | [8] 0.009 | [9] -0.004 | IRAK-1-4 Inhibitor I 0.014 | ibrutinib -0.015 | [10] 0.036 | ralimetinib -0.025 | [11] -0.028 | [12] 0.045 | [13] 0.034 | pinometostat 0.024 | [14] -0.025 | [15] -0.011

PRPS1 (UniProt P60891)
inactive: erlotinib -0.025 | [1] 0.002 | [2] 0.001 | [3] 0.008 | [4] -0.024 | [5] -0.047 | [6] -0.062 | [7] 0.023 | [8] -0.01 | [9] -0.024 | IRAK-1-4 Inhibitor I 0.051 | ibrutinib 0.014 | [10] 0.012 | ralimetinib -0.056 | [11] -0.004 | [12] 0.104 | [13] -0.006 | pinometostat -0.044 | [14] 0.01 | [15] 0.087

2 entries picked at random from those above, as already listed:
PRPS1 (UniProt P60891)
inactive: erlotinib -0.025 | [1] 0.002 | [2] 0.001 | [3] 0.008 | [4] -0.024 | [5] -0.047 | [6] -0.062 | [7] 0.023 | [8] -0.01 | [9] -0.024 | IRAK-1-4 Inhibitor I 0.051 | ibrutinib 0.014 | [10] 0.012 | ralimetinib -0.056 | [11] -0.004 | [12] 0.104 | [13] -0.006 | pinometostat -0.044 | [14] 0.01 | [15] 0.087

PPP6R2 isoform 5 (UniProt O75170)
inactive: erlotinib 0.017 | [1] -0.006 | [2] 0.038 | [3] -0.037 | [4] -0.017 | [5] 0.048 | [6] 0.02 | [7] 0.016 | [8] 0.009 | [9] -0.004 | IRAK-1-4 Inhibitor I 0.014 | ibrutinib -0.015 | [10] 0.036 | ralimetinib -0.025 | [11] -0.028 | [12] 0.045 | [13] 0.034 | pinometostat 0.024 | [14] -0.025 | [15] -0.011

Remaining list, next part

PPP2R1A (UniProt P30153)
inactive: erlotinib 0.006 | [1] 0.027 | [2] 0.068 | [3] 0.014 | [4] 0.003 | [5] 0.02 | [6] 0.023 | [7] 0.009 | [8] 0.015 | [9] -0.001 | IRAK-1-4 Inhibitor I 0.027 | ibrutinib -0.011 | [10] 0.008 | ralimetinib -0.046 | [11] -0.033 | [12] -0.02 | [13] -0.031 | pinometostat -0.03 | [14] -0.021 | [15] 0.02

PRAME (UniProt P78395)
inactive: erlotinib 0.047 | [1] -0.047 | [2] -0.226 | [3] 0.036 | [4] 0.003 | [5] 0.008 | [6] -0.039 | [7] -0.064 | [8] -0.061 | [9] -0.031 | IRAK-1-4 Inhibitor I -0.019 | ibrutinib -0.026 | [10] -0.038 | ralimetinib 0.082 | [11] 0 | [12] -0.013 | [13] 0.231 | pinometostat 0.089 | [14] 0 | [15] -0.084

PPM1E (UniProt Q8WY54)
inactive: erlotinib -0.024 | [1] 0.059 | [2] 0.156 | [3] 0.045 | [4] 0.051 | [5] 0.058 | [6] -0.017 | [7] -0.127 | [8] -0.03 | [9] -0.034 | IRAK-1-4 Inhibitor I 0.046 | ibrutinib -0.001 | [10] 0.092 | ralimetinib -0.027 | [11] -0.064 | [12] -0.084 | [13] -0.008 | pinometostat 0.003 | [14] -0.018 | [15] 0.037

PPP5C (UniProt P53041)
inactive: erlotinib -0.006 | [1] -0.021 | [2] 0.053 | [3] 0.01 | [4] 0.024 | [5] 0.011 | [6] 0.025 | [7] -0.007 | [8] 0.004 | [9] 0.062 | IRAK-1-4 Inhibitor I 0.041 | ibrutinib -0.006 | [10] 0.036 | ralimetinib 0 | [11] -0.051 | [12] 0.027 | [13] -0.04 | pinometostat -0.02 | [14] -0.038 | [15] 0.005

PRMT9 (UniProt Q6P2P2)
inactive: erlotinib 0.06 | [1] -0.015 | [2] 0.003 | [3] 0.024 | [4] 0.002 | [5] 0.05 | [6] -0.07 | [7] 0.014 | [8] -0.031 | [9] 0.051 | IRAK-1-4 Inhibitor I 0.033 | ibrutinib -0.062 | [10] 0.034 | ralimetinib 0.006 | [11] 0.167 | [12] -0.025 | [13] 0.061 | pinometostat 0.035 | [14] -0.116 | [15] 0.06

PPP2R5D (UniProt Q14738)
inactive: erlotinib -0.029 | [1] 0.082 | [2] -0.037 | [3] -0.045 | [4] 0.038 | [5] 0.043 | [6] 0.024 | [7] 0.005 | [8] -0.03 | [9] -0.086 | IRAK-1-4 Inhibitor I -0.089 | ibrutinib -0.051 | [10] 0.096 | ralimetinib 0.079 | [11] -0.165 | [12] -0.161 | [13] 0 | pinometostat -0.004 | [14] -0.034 | [15] -0.015

PREPL (UniProt Q4J6C6)
inactive: erlotinib 0.008 | [1] 0.011 | [2] 0.009 | [3] 0.032 | [4] 0.027 | [5] 0 | [6] 0.002 | [7] 0.011 | [8] -0.005 | [9] 0.013 | IRAK-1-4 Inhibitor I 0.065 | ibrutinib 0.014 | [10] -0.051 | ralimetinib -0.029 | [11] -0.055 | [12] -0.046 | [13] 0.024 | pinometostat 0.017 | [14] -0.035 | [15] 0.017

PRRC2C isoform 7 (UniProt Q9Y520)
inactive: erlotinib -0.086 | [1] -0.128 | [2] -0.263 | [3] 0.015 | [4] -0.051 | [5] -0.005 | [6] -0.051 | [7] -0.04 | [8] 0.037 | [9] -0.078 | IRAK-1-4 Inhibitor I -0.059 | ibrutinib 0.026 | [10] 0.062 | ralimetinib 0.108 | [11] 0.052 | [12] 0.022 | [13] 0.075 | pinometostat 0.155 | [14] 0.015 | [15] -0.163

PPP1R9B (UniProt Q96SB3)
inactive: erlotinib 0.045 | [1] -0.107 | [2] -0.187 | [3] 0.053 | [4] -0.11 | [5] 0.052 | [6] -0.054 | [7] -0.062 | [8] -0.049 | [9] -0.145 | IRAK-1-4 Inhibitor I -0.123 | ibrutinib 0.142 | [10] 0.177 | ralimetinib 0.166 | [11] 0.115 | [12] -0.09 | [13] -0.065 | pinometostat 0.196 | [14] -0.291 | [15] -0.012

PRDX1 (UniProt Q06830)
inactive: erlotinib 0.024 | [1] 0.009 | [2] 0.044 | [3] -0.015 | [4] 0.019 | [5] -0.007 | [6] 0.022 | [7] 0.023 | [8] 0.018 | [9] 0.041 | IRAK-1-4 Inhibitor I 0.038 | ibrutinib 0 | [10] -0.028 | ralimetinib -0.048 | [11] 0.007 | [12] 0.035 | [13] -0.017 | pinometostat -0.026 | [14] 0.005 | [15] 0.006

PRRC1 (UniProt Q96M27)
inactive: erlotinib 0.01 | [1] -0.034 | [2] -0.018 | [3] -0.017 | [4] 0.005 | [5] 0.021 | [6] -0.053 | [7] -0.038 | [8] 0.007 | [9] 0.056 | IRAK-1-4 Inhibitor I 0.016 | ibrutinib 0.023 | [10] 0.006 | ralimetinib -0.021 | [11] 0.013 | [12] 0.041 | [13] 0.004 | pinometostat -0.013 | [14] 0.009 | [15] 0.01

PPP1R10 (UniProt Q96QC0)
inactive: erlotinib -0.021 | [1] -0.175 | [2] -0.381 | [3] -0.043 | [4] -0.031 | [5] 0.091 | [6] -0.077 | [7] -0.109 | [8] -0.02 | [9] -0.188 | IRAK-1-4 Inhibitor I -0.083 | ibrutinib -0.004 | [10] 0.236 | ralimetinib 0.143 | [11] 0.046 | [12] 0.071 | [13] 0.027 | pinometostat 0.353 | [14] -0.021 | [15] 0.223
